# Test results taken from the supplement of paper PMC12067093, “Discovery and optimisation of a covalent ligand for TRIM25 and its application to targeted protein ubiquitination” (Chemical Science, 2025).
# Amino acid sequences for entries named in this document (tags omitted). A change or cut given only in a name is not applied to a line headed by its entry.
# UniProt P13056: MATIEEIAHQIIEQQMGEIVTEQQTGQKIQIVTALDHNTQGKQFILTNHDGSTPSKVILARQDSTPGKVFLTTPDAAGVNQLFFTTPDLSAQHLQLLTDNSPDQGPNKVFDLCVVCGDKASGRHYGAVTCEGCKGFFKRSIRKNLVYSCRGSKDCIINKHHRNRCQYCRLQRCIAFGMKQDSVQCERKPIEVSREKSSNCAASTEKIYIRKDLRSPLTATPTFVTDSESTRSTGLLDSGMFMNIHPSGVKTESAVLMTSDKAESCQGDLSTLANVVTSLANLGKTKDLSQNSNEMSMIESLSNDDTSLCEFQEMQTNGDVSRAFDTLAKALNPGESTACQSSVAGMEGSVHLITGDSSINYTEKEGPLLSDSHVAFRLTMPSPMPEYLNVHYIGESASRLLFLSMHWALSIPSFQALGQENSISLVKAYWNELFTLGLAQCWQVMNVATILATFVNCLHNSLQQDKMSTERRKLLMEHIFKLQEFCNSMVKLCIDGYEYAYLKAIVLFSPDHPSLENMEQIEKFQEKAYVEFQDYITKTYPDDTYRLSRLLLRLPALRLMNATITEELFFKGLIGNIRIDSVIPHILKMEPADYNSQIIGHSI
# UniProt O75052: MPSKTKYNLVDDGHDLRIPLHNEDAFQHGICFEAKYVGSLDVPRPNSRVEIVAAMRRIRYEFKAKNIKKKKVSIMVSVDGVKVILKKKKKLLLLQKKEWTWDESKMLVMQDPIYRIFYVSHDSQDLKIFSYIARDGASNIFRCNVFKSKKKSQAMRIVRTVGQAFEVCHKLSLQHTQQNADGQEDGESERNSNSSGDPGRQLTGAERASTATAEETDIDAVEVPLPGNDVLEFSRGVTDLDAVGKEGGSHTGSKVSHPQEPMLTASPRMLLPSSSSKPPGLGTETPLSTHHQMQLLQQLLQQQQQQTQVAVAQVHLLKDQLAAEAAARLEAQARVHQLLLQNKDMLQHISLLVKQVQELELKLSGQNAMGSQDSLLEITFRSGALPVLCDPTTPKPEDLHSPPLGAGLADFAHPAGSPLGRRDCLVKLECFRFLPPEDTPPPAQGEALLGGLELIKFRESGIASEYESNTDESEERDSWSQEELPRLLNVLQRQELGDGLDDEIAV
# UniProt Q86WI3: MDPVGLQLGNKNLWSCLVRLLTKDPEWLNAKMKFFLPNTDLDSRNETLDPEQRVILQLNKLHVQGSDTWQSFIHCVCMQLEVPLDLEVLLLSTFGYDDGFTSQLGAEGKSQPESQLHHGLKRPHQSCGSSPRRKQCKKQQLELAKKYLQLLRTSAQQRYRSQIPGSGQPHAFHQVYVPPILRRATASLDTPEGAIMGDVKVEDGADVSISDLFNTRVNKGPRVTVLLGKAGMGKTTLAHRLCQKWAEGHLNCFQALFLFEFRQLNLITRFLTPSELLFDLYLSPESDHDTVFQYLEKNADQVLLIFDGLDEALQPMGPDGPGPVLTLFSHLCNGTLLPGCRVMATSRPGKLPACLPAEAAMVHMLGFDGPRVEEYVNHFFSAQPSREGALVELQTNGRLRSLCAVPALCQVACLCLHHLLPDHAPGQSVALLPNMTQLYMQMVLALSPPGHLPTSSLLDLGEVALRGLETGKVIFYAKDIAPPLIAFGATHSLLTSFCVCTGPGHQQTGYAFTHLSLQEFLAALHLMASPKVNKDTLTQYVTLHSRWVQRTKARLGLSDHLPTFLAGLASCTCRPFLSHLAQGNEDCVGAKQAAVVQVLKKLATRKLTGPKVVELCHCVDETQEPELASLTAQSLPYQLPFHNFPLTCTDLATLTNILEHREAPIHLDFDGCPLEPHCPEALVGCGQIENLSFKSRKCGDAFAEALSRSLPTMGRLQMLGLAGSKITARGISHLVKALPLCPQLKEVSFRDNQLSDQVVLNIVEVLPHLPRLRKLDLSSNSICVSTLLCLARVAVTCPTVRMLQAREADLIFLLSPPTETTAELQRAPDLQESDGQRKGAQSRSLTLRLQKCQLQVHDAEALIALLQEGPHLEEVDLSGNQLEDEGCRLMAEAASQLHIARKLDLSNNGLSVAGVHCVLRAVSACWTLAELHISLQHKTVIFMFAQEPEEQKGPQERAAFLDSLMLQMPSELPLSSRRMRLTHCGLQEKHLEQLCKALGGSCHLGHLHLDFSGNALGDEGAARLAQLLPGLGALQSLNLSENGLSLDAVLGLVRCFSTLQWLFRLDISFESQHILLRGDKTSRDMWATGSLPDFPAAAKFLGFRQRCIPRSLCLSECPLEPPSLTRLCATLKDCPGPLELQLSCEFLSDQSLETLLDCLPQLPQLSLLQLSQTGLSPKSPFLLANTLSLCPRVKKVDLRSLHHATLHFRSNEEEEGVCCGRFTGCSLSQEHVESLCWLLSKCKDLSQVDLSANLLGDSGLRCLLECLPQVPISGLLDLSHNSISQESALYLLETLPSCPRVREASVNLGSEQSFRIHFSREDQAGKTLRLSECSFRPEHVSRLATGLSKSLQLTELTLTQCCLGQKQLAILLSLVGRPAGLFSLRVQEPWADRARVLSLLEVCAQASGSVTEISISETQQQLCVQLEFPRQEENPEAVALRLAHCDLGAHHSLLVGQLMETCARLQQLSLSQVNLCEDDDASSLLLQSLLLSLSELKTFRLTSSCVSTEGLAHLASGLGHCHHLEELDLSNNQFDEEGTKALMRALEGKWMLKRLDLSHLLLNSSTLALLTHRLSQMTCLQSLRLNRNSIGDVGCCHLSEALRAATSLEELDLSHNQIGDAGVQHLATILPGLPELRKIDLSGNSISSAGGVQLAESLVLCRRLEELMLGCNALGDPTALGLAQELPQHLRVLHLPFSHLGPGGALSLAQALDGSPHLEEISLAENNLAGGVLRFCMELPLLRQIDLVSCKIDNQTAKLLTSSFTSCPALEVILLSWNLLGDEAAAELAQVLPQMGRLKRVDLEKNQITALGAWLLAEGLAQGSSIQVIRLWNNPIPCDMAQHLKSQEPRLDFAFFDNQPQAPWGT
# UniProt Q04721: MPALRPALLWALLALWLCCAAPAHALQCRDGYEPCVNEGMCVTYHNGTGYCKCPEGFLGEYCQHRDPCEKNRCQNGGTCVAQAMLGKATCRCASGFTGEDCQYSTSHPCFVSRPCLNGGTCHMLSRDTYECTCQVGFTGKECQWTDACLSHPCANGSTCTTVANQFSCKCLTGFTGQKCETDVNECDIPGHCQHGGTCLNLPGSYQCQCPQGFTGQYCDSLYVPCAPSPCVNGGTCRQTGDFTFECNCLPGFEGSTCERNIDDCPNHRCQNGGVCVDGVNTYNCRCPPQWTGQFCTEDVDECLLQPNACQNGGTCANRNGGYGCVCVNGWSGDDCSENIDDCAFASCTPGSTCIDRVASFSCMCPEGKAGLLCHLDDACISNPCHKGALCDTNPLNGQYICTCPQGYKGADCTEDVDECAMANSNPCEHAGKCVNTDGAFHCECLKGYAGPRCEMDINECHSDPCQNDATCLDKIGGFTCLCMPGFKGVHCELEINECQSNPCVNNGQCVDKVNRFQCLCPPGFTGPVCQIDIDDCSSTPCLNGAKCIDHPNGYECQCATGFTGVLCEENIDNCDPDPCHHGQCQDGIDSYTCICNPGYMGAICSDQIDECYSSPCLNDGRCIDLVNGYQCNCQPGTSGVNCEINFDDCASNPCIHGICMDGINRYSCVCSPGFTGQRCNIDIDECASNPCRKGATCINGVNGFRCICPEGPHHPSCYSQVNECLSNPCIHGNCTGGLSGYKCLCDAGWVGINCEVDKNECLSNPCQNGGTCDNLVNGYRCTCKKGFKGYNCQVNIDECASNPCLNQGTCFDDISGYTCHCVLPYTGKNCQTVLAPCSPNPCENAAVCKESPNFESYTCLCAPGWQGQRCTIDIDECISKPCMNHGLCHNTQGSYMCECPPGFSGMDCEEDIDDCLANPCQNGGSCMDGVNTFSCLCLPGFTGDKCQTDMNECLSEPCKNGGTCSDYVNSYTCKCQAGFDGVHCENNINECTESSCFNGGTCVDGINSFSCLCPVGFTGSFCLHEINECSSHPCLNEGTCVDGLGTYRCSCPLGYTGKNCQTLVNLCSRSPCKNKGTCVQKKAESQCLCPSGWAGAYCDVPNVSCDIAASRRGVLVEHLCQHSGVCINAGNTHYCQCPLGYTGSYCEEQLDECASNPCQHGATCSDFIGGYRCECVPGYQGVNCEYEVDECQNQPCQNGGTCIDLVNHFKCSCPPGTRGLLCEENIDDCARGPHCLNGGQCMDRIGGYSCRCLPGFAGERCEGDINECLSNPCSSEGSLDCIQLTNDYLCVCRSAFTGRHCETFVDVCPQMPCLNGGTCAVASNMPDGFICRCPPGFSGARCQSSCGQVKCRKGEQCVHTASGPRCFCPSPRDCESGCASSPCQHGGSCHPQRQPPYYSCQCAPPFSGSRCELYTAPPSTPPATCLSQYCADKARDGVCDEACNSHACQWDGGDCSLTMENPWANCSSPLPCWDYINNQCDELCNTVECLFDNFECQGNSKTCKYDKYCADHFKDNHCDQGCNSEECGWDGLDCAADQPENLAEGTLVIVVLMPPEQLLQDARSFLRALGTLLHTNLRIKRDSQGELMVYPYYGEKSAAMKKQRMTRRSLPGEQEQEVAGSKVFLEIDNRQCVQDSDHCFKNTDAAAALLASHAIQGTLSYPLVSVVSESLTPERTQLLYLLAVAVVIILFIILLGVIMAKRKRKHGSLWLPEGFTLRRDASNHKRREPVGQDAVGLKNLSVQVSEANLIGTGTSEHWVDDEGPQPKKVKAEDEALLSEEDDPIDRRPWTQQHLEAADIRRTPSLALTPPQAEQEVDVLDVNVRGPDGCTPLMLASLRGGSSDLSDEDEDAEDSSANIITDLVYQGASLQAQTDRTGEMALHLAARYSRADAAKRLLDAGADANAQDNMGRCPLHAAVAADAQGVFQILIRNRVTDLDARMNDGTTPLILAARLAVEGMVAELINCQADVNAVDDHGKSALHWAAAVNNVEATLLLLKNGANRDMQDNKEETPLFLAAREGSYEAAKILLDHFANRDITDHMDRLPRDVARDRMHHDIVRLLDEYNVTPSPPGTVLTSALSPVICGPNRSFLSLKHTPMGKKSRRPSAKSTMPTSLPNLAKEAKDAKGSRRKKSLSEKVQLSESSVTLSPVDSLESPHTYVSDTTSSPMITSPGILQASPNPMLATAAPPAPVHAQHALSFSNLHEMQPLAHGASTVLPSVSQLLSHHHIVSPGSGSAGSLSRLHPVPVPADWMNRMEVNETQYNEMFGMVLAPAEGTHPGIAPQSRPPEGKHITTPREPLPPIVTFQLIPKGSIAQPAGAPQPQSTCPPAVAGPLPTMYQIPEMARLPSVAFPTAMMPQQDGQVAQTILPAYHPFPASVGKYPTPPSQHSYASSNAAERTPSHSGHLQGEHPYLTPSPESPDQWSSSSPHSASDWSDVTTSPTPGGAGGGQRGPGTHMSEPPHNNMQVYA
# UniProt Q8NDH3: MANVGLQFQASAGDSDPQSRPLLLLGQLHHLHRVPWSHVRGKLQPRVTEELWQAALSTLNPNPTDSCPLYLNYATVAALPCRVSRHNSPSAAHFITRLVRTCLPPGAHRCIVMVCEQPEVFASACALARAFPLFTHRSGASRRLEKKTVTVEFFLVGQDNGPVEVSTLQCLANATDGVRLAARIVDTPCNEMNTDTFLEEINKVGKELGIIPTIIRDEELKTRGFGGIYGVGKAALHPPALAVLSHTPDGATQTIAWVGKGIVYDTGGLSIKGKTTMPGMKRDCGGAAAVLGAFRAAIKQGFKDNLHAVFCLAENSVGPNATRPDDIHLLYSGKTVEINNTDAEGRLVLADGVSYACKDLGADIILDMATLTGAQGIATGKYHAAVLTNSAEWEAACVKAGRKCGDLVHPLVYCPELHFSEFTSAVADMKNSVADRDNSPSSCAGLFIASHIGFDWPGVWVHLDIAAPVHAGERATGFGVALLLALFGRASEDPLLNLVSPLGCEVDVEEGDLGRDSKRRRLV
# The list shows a part of the results.
# Compound: Cc1cc(ccc1-c1ccccc1)C(=O)N1CCCN(CC1)C(=O)CCl [compound 10]
# Experiment: probe-labelled cysteine peptide fold change vs DMSO (competition) (log2 fold change); higher = less target engagement (more negative = stronger competition)
# Settings: THP-1, incubation time: 4 h
# 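Also: competitive profiling in live THP-1 cells: cysteine peptides tagged with an iodoacetamide desthiobiotin (IA-DTB) probe, intensity after compound treatment relative to DMSO-treated cells.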
Target,probe-labelled cysteine peptide fold change (10 µM),probe-labelled cysteine peptide fold change (50 µM)
NOC4L_Q9BVI4_509_KGPEPVPLEFIPAQGLLGRPGELCAQHFTLS (UniProt Q9BVI4),-0.106,0.122
NR2C1_P13056_200_SSNCAASTEK (UniProt P13056),-0.24,-0.445
NLRX1_Q86UT6_259_LAGTGLCSDPEEPQEPAAIIVNLLR (UniProt Q86UT6),-0.388,0.439
NOS1AP_O75052_31_IPLHNEDAFQHGICFEAK (UniProt O75052),0.071,-0.238
NOL9_Q5SY16_648_TVNCLLVGAIAIPHCVLK (UniProt Q5SY16),0.0896,-0.0864
NOA1_Q8NC60_272_LWEDCAR (UniProt Q8NC60),-0.052,-0.275
NLRC5_Q86WI3_1671_RLEELMLGCNALGDPTALGLAQELPQHLR (UniProt Q86WI3),-0.0917,-0.138
NMD3_Q96D46_321_QLEEFIVMECSIVQDIK (UniProt Q96D46),0.356,0.624
NOTCH2_Q04721_1211_CSCPPGTR (UniProt Q04721),0.0168,8.4e-05
NOL10_Q9BSC4_147_DFSYHYPSCDLYFVGASSEVYR (UniProt Q9BSC4),-0.372,-0.0128
NMD3_Q96D46_383_THLGHLLNPGDLVLGFDLANCNLNDEHVNK (UniProt Q96D46),0.0426,-0.0789
NMD3_Q96D46_214+218_MVEFLQCTVPCR (UniProt Q96D46),0.0333,-0.277
NPEPL1_Q8NDH3_189_IVDTPCNEMNTDTFLEEINK (UniProt Q8NDH3),-0.144,0.265
